{"source": "PubChem BioAssay AID686943 (Drosophila RNAi Screening Center, 2013)", "aim": "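Knockdowns that increase or decrease active ERK after insulin receptor stimulation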 (primary screen)", "cells": "Drosophila S2R+ haemocyte-like cells expressing YFP-tagged ERK (Rolled)", "reagent": "long dsRNA against Drosophila genes", "challenge": "insulin stimulation versus unstimulated cells; dose and duration not given", "detection": "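Antibody staining for doubly phosphorylated ERK divided by ERK-YFP signal, as plate z-scores, in insulin-treated and untreated cells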", "reading the numbers": "replicate 1, z-score of dpERK with insulin and replicate 2, z-score of dpERK with insulin: higher = more active ERK per ERK-YFP after insulin", "note": "The screen tested about 23,000 reagents; below is a random part of those that have a named target and a result. 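Extra replicates exist only for a retested subset of genes; insulin dose and duration not given; both raised and lowered dpERK matter.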 Not all columns of the deposit are shown. Not stated in the record: the amount of reagent, the time to read-out."}
{"target": "CG9452 (GeneID 40119)", "dsRNA": "DRSC11075", "replicate 1, z-score of dpERK with insulin": 1.05, "replicate 2, z-score of dpERK with insulin": 0.61}
{"target": "Muc4B (GeneID 31368)", "dsRNA": "DRSC18062", "replicate 1, z-score of dpERK with insulin": -0.09, "replicate 2, z-score of dpERK with insulin": 0.43}
{"target": "Muc4B (GeneID 31368)", "dsRNA": "DRSC18063", "replicate 1, z-score of dpERK with insulin": -2.12, "replicate 2, z-score of dpERK with insulin": -1.55}
{"target": "CG14567 (GeneID 40420)", "dsRNA": "DRSC11728", "replicate 1, z-score of dpERK with insulin": 0.33, "replicate 2, z-score of dpERK with insulin": 0.42}

Targets above whose gene name starts with M or m (2):
{"target": "Muc4B (GeneID 31368)", "dsRNA": "DRSC18062", "replicate 1, z-score of dpERK with insulin": -0.09, "replicate 2, z-score of dpERK with insulin": 0.43}
{"target": "Muc4B (GeneID 31368)", "dsRNA": "DRSC18063", "replicate 1, z-score of dpERK with insulin": -2.12, "replicate 2, z-score of dpERK with insulin": -1.55}

More entries follow:
{"target": "CG12116 (GeneID 31782)", "dsRNA": "DRSC17812", "replicate 1, z-score of dpERK with insulin": 0.29, "replicate 2, z-score of dpERK with insulin": 0.47}
{"target": "CG7497 (GeneID 39966)", "dsRNA": "DRSC10857", "replicate 1, z-score of dpERK with insulin": -0.86, "replicate 2, z-score of dpERK with insulin": -0.31}
{"target": "CG17010 (GeneID 34650)", "dsRNA": "DRSC02559", "replicate 1, z-score of dpERK with insulin": -0.13, "replicate 2, z-score of dpERK with insulin": 0.29}
{"target": "Ser8 (GeneID 36489)", "dsRNA": "DRSC06891", "replicate 1, z-score of dpERK with insulin": -0.72, "replicate 2, z-score of dpERK with insulin": -1.37}
{"target": "CG12934 (GeneID 36124)", "dsRNA": "DRSC06247", "replicate 1, z-score of dpERK with insulin": -0.32, "replicate 2, z-score of dpERK with insulin": 0.88}
{"target": "CG14785 (GeneID 31094)", "dsRNA": "DRSC18604", "replicate 1, z-score of dpERK with insulin": 0.22, "replicate 2, z-score of dpERK with insulin": 0.41}
{"target": "CCKLR-17D1 (GeneID 32860)", "dsRNA": "DRSC20010", "replicate 1, z-score of dpERK with insulin": 1.69, "replicate 2, z-score of dpERK with insulin": 0.04}
{"target": "CCKLR-17D1 (GeneID 32860)", "dsRNA": "DRSC20011", "replicate 1, z-score of dpERK with insulin": 0.75, "replicate 2, z-score of dpERK with insulin": 0.56}
{"target": "CCKLR-17D1 (GeneID 32860)", "dsRNA": "DRSC20012", "replicate 1, z-score of dpERK with insulin": 0.52, "replicate 2, z-score of dpERK with insulin": 1.42}
